# Reference: the supplement of paper PMC12819154, “High-throughput peptide-centric local stability assay extends protein–ligand identification to membrane proteins, tissues and bacteria” (Nature Structural & Molecular Biology, 2025)
# The chains behind the UniProt entries cited, without tags or fusion partners. Where a name states a change or a piece, a line headed by the entry shows the natural chain unless it says otherwise.
# UniProt O95544: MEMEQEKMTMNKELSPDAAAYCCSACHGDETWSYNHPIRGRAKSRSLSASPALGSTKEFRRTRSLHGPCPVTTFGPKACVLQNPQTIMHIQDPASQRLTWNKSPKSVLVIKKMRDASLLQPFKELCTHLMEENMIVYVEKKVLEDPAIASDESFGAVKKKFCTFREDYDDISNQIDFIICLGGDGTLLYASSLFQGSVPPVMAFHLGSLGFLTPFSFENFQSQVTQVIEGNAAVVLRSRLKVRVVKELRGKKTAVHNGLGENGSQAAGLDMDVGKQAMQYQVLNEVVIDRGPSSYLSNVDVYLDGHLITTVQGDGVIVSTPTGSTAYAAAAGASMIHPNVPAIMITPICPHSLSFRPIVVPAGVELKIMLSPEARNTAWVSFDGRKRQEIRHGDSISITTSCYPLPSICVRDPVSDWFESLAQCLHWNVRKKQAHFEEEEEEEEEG
# UniProt O95486: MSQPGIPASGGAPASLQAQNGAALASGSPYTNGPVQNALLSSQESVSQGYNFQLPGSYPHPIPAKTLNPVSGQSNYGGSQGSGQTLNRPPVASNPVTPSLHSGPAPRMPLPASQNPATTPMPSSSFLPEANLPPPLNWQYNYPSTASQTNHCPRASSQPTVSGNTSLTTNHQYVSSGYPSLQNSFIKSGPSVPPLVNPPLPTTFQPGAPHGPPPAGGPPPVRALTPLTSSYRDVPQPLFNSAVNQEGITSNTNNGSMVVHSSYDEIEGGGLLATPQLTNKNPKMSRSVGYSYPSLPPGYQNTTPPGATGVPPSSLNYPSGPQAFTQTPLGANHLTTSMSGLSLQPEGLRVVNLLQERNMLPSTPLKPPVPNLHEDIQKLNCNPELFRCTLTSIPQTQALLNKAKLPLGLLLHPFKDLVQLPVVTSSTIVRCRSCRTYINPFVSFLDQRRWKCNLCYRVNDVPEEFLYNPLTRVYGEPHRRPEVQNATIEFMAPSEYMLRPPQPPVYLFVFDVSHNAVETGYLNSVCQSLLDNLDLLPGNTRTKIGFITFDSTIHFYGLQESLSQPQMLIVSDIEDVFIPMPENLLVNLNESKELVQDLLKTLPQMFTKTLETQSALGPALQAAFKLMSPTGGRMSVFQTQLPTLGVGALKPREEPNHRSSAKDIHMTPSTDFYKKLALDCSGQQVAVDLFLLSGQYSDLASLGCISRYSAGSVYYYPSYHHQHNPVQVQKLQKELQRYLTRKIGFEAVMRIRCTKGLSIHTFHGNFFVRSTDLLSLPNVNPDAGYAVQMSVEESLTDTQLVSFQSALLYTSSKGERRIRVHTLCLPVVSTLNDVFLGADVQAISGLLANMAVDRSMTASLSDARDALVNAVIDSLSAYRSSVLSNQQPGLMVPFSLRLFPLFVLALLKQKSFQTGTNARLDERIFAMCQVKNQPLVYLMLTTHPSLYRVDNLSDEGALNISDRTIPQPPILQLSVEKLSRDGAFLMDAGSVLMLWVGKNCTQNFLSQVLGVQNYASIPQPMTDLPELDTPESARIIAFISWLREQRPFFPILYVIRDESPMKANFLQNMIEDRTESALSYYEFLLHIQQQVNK
# UniProt O94782: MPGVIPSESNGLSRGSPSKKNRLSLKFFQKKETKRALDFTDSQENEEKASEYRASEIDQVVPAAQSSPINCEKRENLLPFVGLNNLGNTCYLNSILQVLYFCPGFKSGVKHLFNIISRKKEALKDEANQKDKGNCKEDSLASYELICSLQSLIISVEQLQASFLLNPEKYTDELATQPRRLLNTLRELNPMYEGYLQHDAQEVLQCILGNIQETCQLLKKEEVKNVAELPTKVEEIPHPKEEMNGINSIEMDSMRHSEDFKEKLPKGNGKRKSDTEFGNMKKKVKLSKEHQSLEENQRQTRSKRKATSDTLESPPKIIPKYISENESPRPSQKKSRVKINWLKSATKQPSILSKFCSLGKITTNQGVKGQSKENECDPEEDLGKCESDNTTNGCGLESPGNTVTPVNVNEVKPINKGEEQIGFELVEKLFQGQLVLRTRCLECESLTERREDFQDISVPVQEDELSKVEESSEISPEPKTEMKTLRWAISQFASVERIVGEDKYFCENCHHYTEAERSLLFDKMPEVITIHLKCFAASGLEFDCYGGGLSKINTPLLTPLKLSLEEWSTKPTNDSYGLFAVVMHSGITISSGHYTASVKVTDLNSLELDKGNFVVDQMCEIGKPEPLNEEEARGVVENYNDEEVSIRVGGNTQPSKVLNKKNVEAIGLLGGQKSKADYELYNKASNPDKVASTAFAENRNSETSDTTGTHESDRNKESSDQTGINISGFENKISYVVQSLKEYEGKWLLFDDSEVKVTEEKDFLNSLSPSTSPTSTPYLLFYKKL
# UniProt O75607: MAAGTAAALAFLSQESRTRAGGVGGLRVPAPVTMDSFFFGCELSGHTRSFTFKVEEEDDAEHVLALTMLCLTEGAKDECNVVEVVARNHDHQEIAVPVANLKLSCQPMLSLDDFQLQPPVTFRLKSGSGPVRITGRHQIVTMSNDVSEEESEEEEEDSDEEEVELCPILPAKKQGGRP
# UniProt O94776: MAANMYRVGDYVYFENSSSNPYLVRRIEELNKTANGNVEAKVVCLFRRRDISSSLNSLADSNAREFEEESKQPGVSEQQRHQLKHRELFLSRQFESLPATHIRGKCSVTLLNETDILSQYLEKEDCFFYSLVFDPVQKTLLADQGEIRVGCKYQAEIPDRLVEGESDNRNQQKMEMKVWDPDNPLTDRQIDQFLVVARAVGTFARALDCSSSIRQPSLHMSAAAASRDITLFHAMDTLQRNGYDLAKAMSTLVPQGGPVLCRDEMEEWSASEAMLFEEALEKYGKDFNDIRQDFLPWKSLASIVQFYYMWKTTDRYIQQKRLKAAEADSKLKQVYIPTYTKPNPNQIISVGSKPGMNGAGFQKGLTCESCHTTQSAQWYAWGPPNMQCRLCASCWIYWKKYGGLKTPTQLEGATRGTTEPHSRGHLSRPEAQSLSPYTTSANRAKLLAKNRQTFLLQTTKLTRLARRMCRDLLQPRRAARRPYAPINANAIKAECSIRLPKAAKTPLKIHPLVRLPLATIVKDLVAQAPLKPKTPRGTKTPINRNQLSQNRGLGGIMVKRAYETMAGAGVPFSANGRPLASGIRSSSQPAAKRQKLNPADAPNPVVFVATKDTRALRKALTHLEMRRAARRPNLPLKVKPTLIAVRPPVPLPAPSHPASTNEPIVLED
# UniProt O75554: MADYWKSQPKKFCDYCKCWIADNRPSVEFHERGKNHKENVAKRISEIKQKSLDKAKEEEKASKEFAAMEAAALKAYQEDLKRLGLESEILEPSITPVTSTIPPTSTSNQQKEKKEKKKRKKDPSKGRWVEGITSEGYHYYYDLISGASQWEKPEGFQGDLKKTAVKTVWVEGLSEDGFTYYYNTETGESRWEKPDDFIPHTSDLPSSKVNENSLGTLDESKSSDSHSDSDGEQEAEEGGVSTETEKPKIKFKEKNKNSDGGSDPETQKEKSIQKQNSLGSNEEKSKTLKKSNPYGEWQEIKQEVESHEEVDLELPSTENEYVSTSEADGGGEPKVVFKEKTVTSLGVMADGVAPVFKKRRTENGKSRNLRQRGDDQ
# UniProt O94864: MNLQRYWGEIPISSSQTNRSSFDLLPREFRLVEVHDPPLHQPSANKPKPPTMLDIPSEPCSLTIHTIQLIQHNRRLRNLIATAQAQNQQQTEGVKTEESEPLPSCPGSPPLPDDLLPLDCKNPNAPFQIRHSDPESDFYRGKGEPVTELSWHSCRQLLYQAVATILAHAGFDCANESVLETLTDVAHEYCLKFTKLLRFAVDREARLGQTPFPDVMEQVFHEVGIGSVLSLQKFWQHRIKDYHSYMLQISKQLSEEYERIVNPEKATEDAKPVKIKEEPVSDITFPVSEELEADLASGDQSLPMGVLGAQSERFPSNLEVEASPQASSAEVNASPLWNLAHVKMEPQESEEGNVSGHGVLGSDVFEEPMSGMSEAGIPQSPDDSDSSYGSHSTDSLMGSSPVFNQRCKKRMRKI
# UniProt O76071: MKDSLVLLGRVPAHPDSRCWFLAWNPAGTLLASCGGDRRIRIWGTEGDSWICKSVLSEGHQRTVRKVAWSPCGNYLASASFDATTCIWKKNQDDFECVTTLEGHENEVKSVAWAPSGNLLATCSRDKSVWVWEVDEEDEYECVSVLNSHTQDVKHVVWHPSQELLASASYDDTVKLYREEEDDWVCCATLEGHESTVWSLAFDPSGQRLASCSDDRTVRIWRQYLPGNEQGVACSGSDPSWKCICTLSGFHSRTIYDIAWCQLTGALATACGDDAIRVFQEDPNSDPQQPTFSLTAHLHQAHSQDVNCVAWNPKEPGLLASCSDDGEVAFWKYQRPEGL
# UniProt O76094: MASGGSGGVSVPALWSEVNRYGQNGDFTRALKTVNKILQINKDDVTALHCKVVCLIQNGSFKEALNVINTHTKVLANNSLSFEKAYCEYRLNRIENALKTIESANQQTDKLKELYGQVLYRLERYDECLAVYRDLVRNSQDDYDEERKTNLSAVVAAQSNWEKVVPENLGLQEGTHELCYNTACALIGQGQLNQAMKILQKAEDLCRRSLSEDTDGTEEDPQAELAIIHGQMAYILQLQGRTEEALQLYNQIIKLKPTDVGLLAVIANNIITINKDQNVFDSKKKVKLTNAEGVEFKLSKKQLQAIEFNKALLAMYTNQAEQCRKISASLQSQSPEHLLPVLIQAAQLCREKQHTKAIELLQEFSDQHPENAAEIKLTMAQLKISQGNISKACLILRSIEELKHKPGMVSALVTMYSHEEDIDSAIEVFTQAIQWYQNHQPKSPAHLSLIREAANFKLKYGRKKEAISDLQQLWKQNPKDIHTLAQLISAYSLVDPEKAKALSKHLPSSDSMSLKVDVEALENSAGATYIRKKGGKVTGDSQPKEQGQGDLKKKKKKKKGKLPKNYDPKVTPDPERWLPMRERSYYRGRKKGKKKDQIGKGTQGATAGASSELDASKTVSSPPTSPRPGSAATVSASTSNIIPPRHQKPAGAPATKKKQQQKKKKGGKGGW
# UniProt P00367: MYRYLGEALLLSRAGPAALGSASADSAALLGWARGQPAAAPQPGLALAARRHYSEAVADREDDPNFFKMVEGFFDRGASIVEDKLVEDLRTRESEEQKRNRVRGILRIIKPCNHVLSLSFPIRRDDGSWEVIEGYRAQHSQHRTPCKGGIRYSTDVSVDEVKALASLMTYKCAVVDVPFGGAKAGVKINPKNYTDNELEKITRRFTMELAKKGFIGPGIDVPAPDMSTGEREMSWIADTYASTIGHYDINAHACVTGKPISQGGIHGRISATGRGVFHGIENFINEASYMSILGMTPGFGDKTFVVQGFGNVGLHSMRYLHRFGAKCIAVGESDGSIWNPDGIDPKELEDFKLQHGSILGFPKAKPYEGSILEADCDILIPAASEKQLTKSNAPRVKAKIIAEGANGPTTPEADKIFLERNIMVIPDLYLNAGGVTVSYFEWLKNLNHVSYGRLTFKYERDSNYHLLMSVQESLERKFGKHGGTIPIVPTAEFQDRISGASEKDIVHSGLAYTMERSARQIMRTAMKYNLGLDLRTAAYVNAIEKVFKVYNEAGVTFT
# This is one part of the list. Small differences around the control level are noise.
# Compound: Cc1nc(Nc2ncc(C(=O)Nc3c(C)cccc3Cl)s2)cc(N2CCN(CCO)CC2)n1 [dasatinib]
# Experiment: log2 fold change of tryptic peptide abundance, ligand vs vehicle (limited proteolysis) (log2 ratio); higher = more trypsin-susceptible (destabilized)
# Settings: ligand concentration: 5 uM; sample: K562 cleared lysate
row,Target,log2 fold change
1,"NADK (peptide sequence: SLHGPCPVTTFGPK, peptide start residue: 64) (UniProt O95544)",0.075
2,"SEC24A (peptide sequence: AKLPLGLLLHPFK, peptide start residue: 403) (UniProt O95486)",-0.441
3,"USP1 (peptide sequence: VASTAFAENR, peptide start residue: 690) (UniProt O94782)",0.535
4,"NPM3 (peptide sequence: NHDHQEIAVPVANLK, peptide start residue: 88) (UniProt O75607)",-0.0545
5,"MTA2 (peptide sequence: QPSLHMSAAAASR, peptide start residue: 215) (UniProt O94776)",0.21
6,"WBP4 (peptide sequence: WEKPDDFIPHTSDLPSSK, peptide start residue: 191) (UniProt O75554)",-0.61
7,"SUPT7L (peptide sequence: IKDYHSYMLQISK, peptide start residue: 239) (UniProt O94864)",-0.239
8,"CIAO1 (peptide sequence: HVVWHPSQELLASASYDDTVK, peptide start residue: 155) (UniProt O76071)",0.172
9,"SRP72 (peptide sequence: KTNLSAVVAAQSNWEK, peptide start residue: 148) (UniProt O76094)",0.147
10,"GLUD1 (peptide sequence: MVEGFFDR, peptide start residue: 69) (UniProt P00367)",0.152

# Two records drawn at random from the list so far:
row,Target,log2 fold change
5,"MTA2 (peptide sequence: QPSLHMSAAAASR, peptide start residue: 215) (UniProt O94776)",0.21
1,"NADK (peptide sequence: SLHGPCPVTTFGPK, peptide start residue: 64) (UniProt O95544)",0.075
